Measured values published in patent US20080119483A1, “COMPOSITIONS AND METHODS FOR INHIBITING PROTOZOAN GROWTH” (priority 2006, published 2008).
At least one compound was matched to its structure with a doubt left.

Test system: L. major LV39 WT promastigotes
Assay: Composition of free sterols by GC/MS, WT promastigotes
Format: cell-based, Leishmania major
Conditions: 5-10 nM
Experimental: Log phase L. major LV39 WT and spt2^− promastigotes were grown in the presence or absence of ITZ or CLT. Culture densities were determined 48 hours later and total lipids were extracted and the composition of free sterols was determined by GC/MS as described in Materials and Methods. ND: not detectable. Each experiment was repeated at least 3 times and results from one representative set were shown.
Here WT and spt2^− parasites were grown in various concentrations of ITZ (0.001 nM to 1 μM) or CLT (10 nM to 5 μM). Effects of ITZ and CLT on growth, sterol composition and DRM were analyzed after 48 hours. Basically, culture densities were determined using a particle counter and drugs' effects on growth were assessed in comparison to control cells (no drug); sterol lipids were extracted and analyzed by GC/MS and the percentage of 14-methylfecosterol (among all detectable sterol lipids) was used to reflect changes in sterol composition (see Table 2). DRMs were also isolated and the percentage of GP63 that were insoluble at 4° C. was used as an indicator for the integrity of DRM (see FIG. 2). Two to four independent experiments were performed and the averaged results were plotted in FIG. 3.
Total lipids were extracted using the Folch's method [Folch, et al., 1957]. Briefly, promastigotes were harvested by centrifugation and washed once with PBS. […]

SMILES: CCC(C)n1ncn(-c2ccc(N3CCN(c4ccc(OCC5COC(Cn6cncn6)(c6ccc(Cl)cc6Cl)O5)cc4)CC3)cc2)c1=O (stereo not shown) [Itraconazole]
- Effect on sterol composition: completely altered the sterol composition
